The inconclusive results got no clear call from the source; some entries with a clear call stand among them for comparison. Potencies beside an inconclusive call are fits to weak or partial responses and may not hold up. The source made the active and inactive calls. The call rests on the fitted dose curve; in most records, active means well fitted cell-killing curve with a large enough effect; inconclusive means small, poorly fitted or top-dose-only effect; inactive means flat fitted curve, though single readings scatter.
Assay: Quantitative highthroughput screen to assess conditional lethalithy of P12 Ichikawa cells grown in RPMI1640 with untreated serum (RPMI+s) (AID 1963881); further: nearly all actives have a fitted effect of over 35% in size
Conditions: ATP luminescence, 48 h; Potency: viability; series mostly up to 45.8 µM; viability: at the top concentration
Excerpt: Assay Provider: Jason Cantor Ph.D.
Department of Biochemistry
University of Wisconsin-Madison, Madison, WI, USA
Chemical screening studies have identified drug sensitivities across hundreds of cancer cell lines but most putative therapeutics fail to translate. Discovery and development of drug candidates in models that more accurately reflect nutrient levels in human blood is a major challenge. Here we performed high-throughput screens in conventional versus Human Plasma-Like Medium (HPLM) to identify compounds that were "missed" when screening using the artificial culture condition. Sets of conditional anticancer compounds spanned phases of clinical development and included non-oncology drugs were assessed. […] We also traced conditional phenotypes for several chemotherapeutics to availability of HPLM-specific metabolites and confirmed others for compounds whose reported targets are encoded by nonessential genes. Our findings establish generalizable strategies for exploiting conditional lethality in HPLM to reveal therapeutic candidates and mechanisms of action in cancer cells.
Described herein are the results of each viability screens against three cell lines: NOMO1 (an acute myeloid leukemia cell line); P12-Ichikawa (a T-cell acute lymphoblastic leukemia); and SEM (a B-cell ALL). Each assay was screened using 3 different cell culture media: homemade human plasma-Like medium with 10% dialyzed fetal bovine serum (HPLM+ds); RPMI1640 with 10% untreated FBS and 5mM glucose (RPMI+s); and RPMI1640 with 10% dialyzed fetal bovine serum and 5 mM glucose (RPMI+ds).
PROTOCOL TABLE (as described by Inglese J, Shamu CE and Guy RK. 2007)
SEQUENCE No. (e.g., 1, 2, 3, etc.); […] (e.g., Cells, Incubation, Reagent, etc.); VALUE and DESCRIPTION.
1; Cells; 5 uL; white, solid bottom 1536-well Greiner assay plate.
2; Compounds; 23 nL; Kalypsis pin tool (Wako USA) equipped with a 1536-well pin head to transfer to the assay plates.
3; Incubation; 48 hours; 37C incubation.
4; Reagent; 3 uL; CellTiter Glo (Promega).
5; Incubation; 5 min, room temperature
6; Detection; Luminescence, Viewlux PerkinElmer.
NOTES (numbers refer to Sequence numbers above)
1. Briefly, 5 ul of cell reagent was dispensed using a Multidrop Combi Dispenser. The NOMO1 and SEM cells were plated at 500 cells/well and the P12-Ichikawa line at 1000 cells/well.
2. After seeding the cells, 23 nL of MIPE 4.1 library compounds (in DMSO) were added to each plate using a Kalypsys 1536 Pintool dispenser. Bortezomib at final concentration of […] and DMSO were added to each plate as positive and negative controls respectively. For each screen, MIPE 4.1 compounds were added over an eleven-point concentration range […] in 3-fold dilutions.
3. Each plate was covered with a stainless steel gasketed lid to prevent evaporation and incubated for 48 hour at 37C, 95% relative humidity, and 5% CO2.
4-5. Three microliter CellTilter-GloTM luminescent substrate mix (Promega) reagent was added to the assay plate and incubated at room temperature for 5 min.
6. The luminescence signal was measured using a ViewLux (PerkinElmer) multiplate reader with a 2 second exposure time per plate. Data for each compound were normalized as percent viability such that measurements for DMSO and the empty well controls in each plate were defined as 100% and 0%, respectively.
Potency means the concentration at half of the fitted maximal effect.

SMILES | Potency | viability
O=C1[C@H](Cc2ccc(O)cc2)N2C(=O)CCN(C(=O)NCc3ccccc3)[C@H]2CN1Cc1cccc2ccccc12 | inconclusive: 11.8 µM [cytotoxic, single point] | 
CN(C)C(=O)C(CCN1CCC(O)(c2ccc(Cl)cc2)CC1)(c1ccccc1)c1ccccc1 | inconclusive: 23.5 µM [cytotoxic, partial curve] | 
COc1ccc(-c2ccc3ncc4c(c3c2)n(-c2ccc(N3CCNCC3)c(C(F)(F)F)c2)c(=O)n4C)cn1 | inconclusive: 0.166 µM [cytotoxic, full curve] | 
CCC1=C[C@@H]2CN(C1)Cc1c([nH]c3ccccc13)[C@@](C(=O)OC)(c1cc3c(cc1OC)N(C)[C@@H]1[C@@](O)(C(=O)OC)[C@H](OC(C)=O)[C@]4(CC)C=CCN5CC[C@]31[C@@H]54)C2 | active: 0.0209 µM | 
OCc1ccc(-c2nn(Cc3ccccc3)c3ccccc23)o1 | inconclusive: 37.2 µM [cytotoxic, single point] | 
O=C(O)C(=O)Nc1cccc(C2=NN=N[N]2)c1 |  | inactive: 90%
Cc1c(CN2CCN(S(C)(=O)=O)CC2)sc2c(N3CCOCC3)nc(-c3cnc(N)nc3)nc12 | inconclusive: 0.148 µM [cytotoxic, full curve] | 
CC(C)N(CC[C@H](c1ccccc1)c1cc(CO)ccc1O)C(C)C |  | inactive: 105%
CN(C)C(=N)N=C(N)N | inconclusive: 33.2 µM [cytotoxic, single point] | 
Cc1ccc(C(=O)Nc2cccc(C(F)(F)F)c2)cc1-c1ccc2nc(NCCN3CCOCC3)ncc2c1 | inconclusive: 4.18 µM [cytotoxic, full curve] | 
CC(=O)Oc1ccccc1C(=O)O |  | inactive: 110%
Cc1cc([C@@H](C)Nc2ccccc2C(=O)O)c2nc(N3CCOCC3)cc(=O)n2c1 | inconclusive: 27 µM [cytotoxic, partial curve] | 
CC(C)N(C[C@H]1O[C@@H](n2cnc3c(N)ncnc32)[C@H](O)[C@@H]1O)C1CC(CCc2nc3ccc(C(C)(C)C)cc3[nH]2)C1 (stereo not given in full) | inconclusive: 26.3 µM [cytotoxic, single point] | 
CN(C)CCCN1c2ccccc2CCc2ccc(Cl)cc21 | inconclusive: 33.2 µM [cytotoxic, single point] | 
C1CCC(C(CC2CCCCN2)C2CCCCC2)CC1 (stereo not given) | inconclusive: 26.4 µM [cytotoxic, partial curve] | 
C=C1CCC2[C@](C)(CO)C(O)CC[C@]2(C)C1CC=C1C(=O)OCC1O (stereo not given in full) |  | inactive: 100% [at 92.2 µM]
CC(C)N(CCCNC(=O)Nc1ccc(C(C)(C)C)cc1)C[C@H]1O[C@@H](n2cc(Br)c3c(N)ncnc32)[C@H](O)[C@H]1O | inconclusive: 23.5 µM [cytotoxic, single point] | 
Cc1ccc(S(=O)(=O)Nc2nc3ccccc3nc2Nc2ccc3nsnc3c2)cc1 | active: 4.07 µM | 
CN(C)Cc1cccc(N=C(c2ccccc2)c2c(O)[nH]c3cc(C(=O)N(C)C)ccc23)c1 | inconclusive: 18.7 µM [cytotoxic, partial curve] | 
CN(N=O)C(=O)N[C@H]1C(O)OC(CO)[C@@H](O)[C@H]1O (stereo not given in full) |  | inactive: 99.8%

SMILES | Potency | viability
OC[C@H]1O[C@@H](O[C@H]2[C@@H](O)[C@@](O)(CO)O[C@@H]2CO)[C@H](O)[C@@H](O)[C@@H]1O | inconclusive: 11.8 µM [cytotoxic, partial curve, poor fit] | 
CN(C[C@@H]1COCCO1)S(=O)(=O)Nc1ccc2ccc3ncc(-c4cnn(C)c4)cc3c(=O)c2c1 | inconclusive: 0.662 µM [cytotoxic, full curve] | 
Cc1ccc(NC(=O)c2ccc(CN3CCN(C)CC3)cc2)cc1Nc1nc(-c2cccnc2)cs1 | inconclusive: 2.96 µM [cytotoxic, full curve] | 
O=C(NCC1CN(c2ccc(N3CCOCC3=O)cc2)C(=O)O1)c1ccc(Cl)s1 (stereo not given) | active: 2.96 µM | 
Cc1nc(Nc2ncc(C(=O)Nc3c(C)cccc3Cl)s2)cc(N2CCN(CCO)CC2)n1 | inconclusive: 4.18 µM [cytotoxic, full curve] | 
Cn1cc(C2=C(c3c4n(c5ccccc35)CCC(CN)C4)C(=O)NC2=O)c2ccccc21 (stereo not given) | inconclusive: 13.2 µM [cytotoxic, partial curve] | 
O=C(N[C@@H](c1ccccc1)[C@@H]1CCCCN1)c1cccc(C(F)(F)F)c1Cl | inconclusive: 37.2 µM [cytotoxic, single point] | 
CC(C)[C@H](N)C(=O)OCCOCn1cnc2c(=O)[nH]c(N)nc21 |  | inactive: 110%
CNC(=O)[C@H](Cc1ccccc1)NC(=O)[C@H](CC(C)C)[C@H](CSc1cccs1)C(=O)NO | active: 9.35 µM | 
O=c1ccc2ccc(O)c(O)c2o1 | inconclusive: 37.2 µM [cytotoxic, single point] | 
C[C@@H](O[C@H]1OCCN(Cc2n[nH]c(=O)[nH]2)[C@@H]1c1ccc(F)cc1)c1cc(C(F)(F)F)cc(C(F)(F)F)c1 | inconclusive: 26.4 µM [cytotoxic, single point] | 
O=C(C1CC1)N1CC[C@@H](Cn2c(-c3ccc(-c4ccc5occc5c4)cc3)nc3cnccc32)C1 | inconclusive: 33.2 µM [cytotoxic, single point] | 
Nc1ncn([C@@H]2O[C@H](CO)[C@@H](O)[C@@H]2O)c(=O)n1 | inconclusive: 11.8 µM [cytotoxic, partial curve] | 
COC1CCC(N(C(=O)C2CCC(C)CC2)c2cc(C3=CCCCC3)sc2C(=O)O)CC1 (stereo not given) | inconclusive: 23.5 µM [cytotoxic, partial curve, poor fit] | 
C[C@H](NC(=O)C(=O)Nc1ccccc1C(C)(C)C)C(=O)N[C@@H](CC(=O)O)C(=O)COc1c(F)c(F)cc(F)c1F | active: 14.8 µM | 
C[C@H](c1ccc(F)cc1CCCC(=O)O)N(c1cc(F)ccc1F)S(=O)(=O)c1ccc(Cl)cc1 | inconclusive: 29.6 µM [cytotoxic, partial curve, poor fit] | 
CO[C@H]1/C=C\O[C@@]2(C)Oc3c(C)c(O)c4c(O)c(c5c(nc6cc(C)ccn65)c4c3C2=O)NC(=O)C(C)=CC=C[C@H](C)[C@H](O)[C@@H](C)[C@@H](O)[C@@H](C)[C@H](OC(C)=O)[C@H]1C | inconclusive: 3.72 µM [cytotoxic, full curve, poor fit] | 
O=S(=O)(O)c1ccc2cc(N=Nc3cc(S(=O)(=O)O)c4cccnc4c3O)ccc2c1 | inconclusive: 37.2 µM [cytotoxic, single point] | 
CC(=O)Nc1nc(C)c(-c2ccc(Cl)c(S(=O)(=O)NCCO)c2)s1 | inconclusive: 0.418 µM [cytotoxic, full curve] | 
O=c1cc(-c2ccccc2)oc2cc(O)cc(O)c12 | active: 20.9 µM | 

Arranged by length of the SMILES (smallest number first): part of the list above.
SMILES | Potency | viability
O=c1ccc2ccc(O)c(O)c2o1 | inconclusive: 37.2 µM [cytotoxic, single point] | 
CC(=O)Nc1nc(C)c(-c2ccc(Cl)c(S(=O)(=O)NCCO)c2)s1 | inconclusive: 0.418 µM [cytotoxic, full curve] | 
O=S(=O)(O)c1ccc2cc(N=Nc3cc(S(=O)(=O)O)c4cccnc4c3O)ccc2c1 | inconclusive: 37.2 µM [cytotoxic, single point] | 

Reference: PubChem BioAssay (NCATS)
